From paper PMC10163288
The list shows a part of the results.

B1: il2ra_site2_3nfp_normal_mot_HHH_b2_04451_000000238_0001_21_37_H_._HHH_b1_08573_0001_0000400020_0000001_0 (protein)
chain: SSSDEEERIEELIELVEELIKEGDRTEALQVLLEASELAAKLGDEELARILLELFLLLQEKSSSS
B2: il2ra_site2_2erj_sap_26_mot_HHH_b2_01204_af2_000000051_0001_19_34_H_._HHH_b2_07809_0001_0000700013_0000001_1_0001 (protein)
chain: SSSSDLHELFRLAVEIMRLIAEGDPEKAEELIQELRELIEETNSEAAKKILRHLERHLEESSSSS
B3: il2ra_site1_2b5i_normal_mot_HHH_b2_04910_000000118_0001_1_19_H_._HHH_b2_06803_af2_0001_0000100005_0000001_0_af2pred_dldesign_0_af2pred (protein)
chain: SSSSSSSKALELFLKANEAFQAGKYEEAKKLLEEALEEAKKNKENSILKMVESALKSLSSSSSSS
B4: il2ra_site1_1z92_normal_mot_922575b2e9738a49cb663a995786872c_0001_af2_000000234_0001_18_32_H_._ae2d1c0b5552e85e62693402b9c72bf7_0001_af2_0001_0000400024_0000001 … (protein)
chain: SRENEERIEEAIKKNDLELLKEHLRLLERLAGDPHLARQYLKLQIARLLGDPEEAEEIVEEIEKR
B5: il2ra_site1_1z92_sap_22_mot_HHH_b2_03816_af2_000000009_0001_40_54_H_._HHH_b1_06068_0001_0000300025_0000001_1_0001 (protein)
chain: DAVLRDLERTEKFFGNPENALKALVAALRDLGDPELQEIAEIIRELLERGVPPEEIKEIVKELVR
B6: il2ra_site2_3nfp_sap_26_mot_HHH_b1_03873_000000295_0001_37_55_H_._HHH_b2_02278_af2_0001_0000300022_0000001_0_0001_af2pred_0001_af2pred_1_swapped (protein)
chain: SSSSSHEELVKELRKELREAEEEGDEERLRQLAFLLIRLALELNDEELEELAKRLLHELWSSSSS
B7: il2ra_site1_3nfp_sap_17_mot_HHH_b1_06312_000000077_0001_1_18_H_._HHH_b1_02603_af2_0001_0000500014_0000001_0_0001_af2pred_0001_af2pred_1 (protein)
chain: SSSSDVEEFLEEIKEELREALEKGDARLAARIFKEASKKLREKGNPELAEELYEFLRKLISSSSS
B8: il2ra_site2_2erj_sap_21_mot_HHH_b2_01275_af2_000000073_0001_23_39_H_._HHH_b1_08366_af2_0001_0000500019_0000001_0_0001 (protein)
chain: SSSSNEELKKLYELLEEILRALHEGDEEKFEELLEELERLAEELDSENAKEIAEALRELGSSSSS
B9: il2ra_site2_3nfp_sap_18_mot_HHH_b1_04032_000000208_0001_43_56_H_._14fc6b67d8325dfdf4a09fbb2e7c13bb_0001_1_af2_0001_0000200004_0000001_1_0001 (protein)
chain: SSSSDVEEIAQELLEEAKELLERGNPREAAHVLAELATFLMRRNNRELLKEVNQLAYEILNSSSS
B10: il2ra_site2_3nfp_normal_mot_HHH_b1_00660_af2_000000090_0001_40_57_H_._HHH_b2_04195_0001_0000100015_0000001_0_af2pred_0001_1_af2pred_swapped (protein)
chain: SSSSSEEEEVRELLEQAKELLERGNPEEAEEILRRAADLAYEANNFELFAIISELLEKVDQSSSS
B11: il2ra_site2_3nfp_normal_mot_HHH_b1_01086_af2_000000264_0001_39_53_H_._HHH_b1_02927_0001_0000400028_0000001_0_af2pred_0001_1_af2pred_swapped (protein)
chain: SSSSSEEERLVKELLREAEEARENNDEELLAHLLAVAFSIALEINNEELQKEVEEVSQRLRSSSS
B12: il2ra_site1_2b5i_sap_16_mot_HHH_b2_07442_af2_000000069_0001_1_16_H_._HHH_b1_00444_0001_0000100001_0000001_0_0001_af2pred_dldesign_0_af2pred (protein)
chain: SSSSEDLRELTRELIAEARRLKDTDPLLAKKLARLALRLARKSGDEELVAEARAVLAELESSSSS
B13: il2ra_site2_2erj_normal_mot_6ec3e94b46d95805cdcdc10c0c108f03_0001_af2_000000040_0001_36_50_H_._HHH_b1_06242_af2_0001_0000300012_0000001_0 (protein)
chain: SSSSDELRELYELANEILHLLARGDPEQARELIEEARELAEELQSDNAKELLESLERLARSSSSS
B14: il2ra_site1_1z92_sap_28_mot_HHH_b1_01467_000000208_0001_22_39_H_._HHH_b1_01192_af2_0001_0000200006_0000001_0_0001_af2pred_0001_af2pred_1 (protein)
chain: DLEERIEELIEQIPNPQVRRLLELVLEELKEDERVALRDVRRLLEFFGDPIVEEIVELIEELVRR
B15: il2ra_site1_2b5i_normal_mot_HHH_b1_06833_000000178_0001_1_19_H_._HHH_b1_07373_af2_0001_0000100007_0000001_0 (protein)
chain: SSSSTEEKELVRFVLRLITRLRLSEEQARELAQLAAELLFEGVDEEEIEEILRKLAEELGSSSSS
B16: il2ra_site1_3nfp_sap_15_mot_5dea99290cf7e133ebc5b763b21a7a39_0001_000000141_0001_34_49_H_._f43df4b072a677831423678cc65c5d2a_0001_0001_0000500017_0000001_0_0001 (protein)
chain: SSSSSRAEELTEMAEQAAKMLGDEELERLLRELLEEAKEKGDKRVWQELWEVIFEVIQRSASSSS
B17: il2ra_site2_3nfp_normal_mot_aceb0566c4959a1d3b0eec5718b8dc8a_0001_af2_000000069_0001_34_48_H_._HHH_b2_03402_0001_0000100008_0000001_0_af2pred_0001_af2pred_swapp … (protein)
chain: SSSSDEEERRARFIFRYAEWLAEEQNDEETLERLRELAEEYEEKGDPRVLEEVLELARELSSSSS
B18: il2ra_site2_3nfp_normal_mot_HHH_b1_00660_af2_000000090_0001_40_57_H_._HHH_b2_01829_0001_0000200031_0000001_0_af2pred_0001_af2pred (protein)
chain: SSSSSDEEREEVEELLEEAKHIEDDEERERLLRRAALIAVEANDFELFALVTLVMEELENSSSSS
B19: il2ra_site1_1z92_sap_19_mot_HHH_b2_06948_000000036_0001_19_35_H_._0c3f1ad226cb76d7bcdd6a902dc11329_0001_1_af2_0001_0000100016_0000001_0_0001_af2pred_0001_af2pre … (protein)
chain: SVEEFLRELAKRNPELFERFVERSLKAEGVPPEEIEEILEEIRELLKRDPEQAVELALELLHRAS

Each binder was assayed against il2ra, P01589 (assay: yeast display titration).

Apparent Kd, inactive:
B1 no binding seen
B2 no binding seen
B3 no binding seen
B4 no binding seen
B5 no binding seen
B6 no binding seen
B7 no binding seen
B8 no binding seen
B9 no binding seen
B10 no binding seen
B11 no binding seen
B12 no binding seen
B13 no binding seen
B14 no binding seen
B15 no binding seen
B16 no binding seen
B17 no binding seen
B18 no binding seen
B19 no binding seen

Quoted at random: two records from the list
Apparent Kd, inactive:
B6 no binding seen
B17 no binding seen
